In experiment [1] the target is HIF-1β (rat (endogenous in ventrolateral medulla)) (UniProt P41739). In words: co-IP; cytosolic fraction of rat ventrolateral medulla (sham, aCSF, Phases I and II of mevinphos intoxication); immunoprecipitated with anti-HIF-1β antiserum; immunoblot for HIF-1α or HIF-2α; used as a control.
Experiment [2] has the same target. The experiment can be described thus: co-IP; nuclear fraction of rat ventrolateral medulla (sham, aCSF, Phases I and II of mevinphos intoxication); immunoprecipitated with goat polyclonal anti-HIF-1β on protein G-agarose; immunoblot for HIF-1α or HIF-2α. (In western blotting, separated proteins are transferred to a membrane and probed.)
Experiment [3] concerns the target small ubiquitin-related modifier-1 (rat (endogenous in ventrolateral medulla)) (UniProt Q5I0H3). The experiment can be described thus: co-IP; nuclear and cytosolic fractions of rat ventrolateral medulla (sham, aCSF, Phases I and II of mevinphos intoxication); immunoprecipitated with rabbit polyclonal anti-SUMO-1 or mouse monoclonal anti-HIF-1α on protein G-agarose; immunoblot for HIF-1α or SUMO-1.

Sequences of proteins named here, by UniProt entry; tags and fusion partners are left off. Residues count along the entry.
UniProt P41739: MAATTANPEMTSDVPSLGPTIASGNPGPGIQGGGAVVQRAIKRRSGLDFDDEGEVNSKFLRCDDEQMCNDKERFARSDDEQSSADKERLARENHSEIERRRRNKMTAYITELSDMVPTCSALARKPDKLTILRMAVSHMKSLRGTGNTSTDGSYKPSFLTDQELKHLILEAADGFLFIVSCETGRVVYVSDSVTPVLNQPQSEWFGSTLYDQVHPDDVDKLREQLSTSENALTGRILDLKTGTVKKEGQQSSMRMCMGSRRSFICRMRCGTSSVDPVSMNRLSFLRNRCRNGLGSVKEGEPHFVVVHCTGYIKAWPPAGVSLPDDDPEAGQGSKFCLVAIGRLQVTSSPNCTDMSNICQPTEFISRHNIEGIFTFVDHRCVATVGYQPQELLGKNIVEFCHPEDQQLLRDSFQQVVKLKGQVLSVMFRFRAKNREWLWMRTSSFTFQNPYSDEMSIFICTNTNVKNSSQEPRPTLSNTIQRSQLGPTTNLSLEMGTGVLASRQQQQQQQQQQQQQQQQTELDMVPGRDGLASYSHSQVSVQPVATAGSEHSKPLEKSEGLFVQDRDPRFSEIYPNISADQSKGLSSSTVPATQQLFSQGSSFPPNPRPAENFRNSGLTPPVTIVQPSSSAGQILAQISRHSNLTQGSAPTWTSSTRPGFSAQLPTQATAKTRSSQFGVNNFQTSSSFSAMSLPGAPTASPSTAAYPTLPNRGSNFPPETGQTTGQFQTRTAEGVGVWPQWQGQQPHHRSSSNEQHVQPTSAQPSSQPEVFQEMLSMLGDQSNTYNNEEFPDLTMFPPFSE
UniProt Q5I0H3, residues 1-97: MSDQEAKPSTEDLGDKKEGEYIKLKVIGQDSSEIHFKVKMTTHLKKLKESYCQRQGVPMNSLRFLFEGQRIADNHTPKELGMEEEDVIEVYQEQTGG
UniProt O35800: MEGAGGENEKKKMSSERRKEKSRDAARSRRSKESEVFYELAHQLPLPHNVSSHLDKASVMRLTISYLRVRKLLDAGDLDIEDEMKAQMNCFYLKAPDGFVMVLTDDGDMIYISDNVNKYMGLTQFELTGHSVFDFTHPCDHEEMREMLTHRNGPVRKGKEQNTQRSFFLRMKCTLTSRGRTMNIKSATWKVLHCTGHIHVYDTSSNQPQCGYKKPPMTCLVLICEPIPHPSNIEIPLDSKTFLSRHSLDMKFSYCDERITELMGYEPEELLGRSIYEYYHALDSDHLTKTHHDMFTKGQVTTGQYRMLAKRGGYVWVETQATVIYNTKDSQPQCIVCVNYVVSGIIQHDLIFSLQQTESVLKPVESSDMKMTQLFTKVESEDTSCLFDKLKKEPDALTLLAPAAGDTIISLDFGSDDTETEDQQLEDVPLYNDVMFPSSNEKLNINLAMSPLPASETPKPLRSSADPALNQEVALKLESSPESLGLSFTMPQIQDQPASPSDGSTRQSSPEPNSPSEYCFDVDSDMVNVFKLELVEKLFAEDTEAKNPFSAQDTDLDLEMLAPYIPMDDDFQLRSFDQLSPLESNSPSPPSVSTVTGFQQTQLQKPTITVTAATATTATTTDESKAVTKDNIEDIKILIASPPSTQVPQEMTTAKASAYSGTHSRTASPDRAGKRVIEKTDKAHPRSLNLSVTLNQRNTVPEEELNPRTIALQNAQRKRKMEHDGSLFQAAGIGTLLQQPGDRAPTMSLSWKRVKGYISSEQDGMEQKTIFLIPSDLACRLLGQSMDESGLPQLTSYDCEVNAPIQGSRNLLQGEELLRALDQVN
UniProt Q9JHS1: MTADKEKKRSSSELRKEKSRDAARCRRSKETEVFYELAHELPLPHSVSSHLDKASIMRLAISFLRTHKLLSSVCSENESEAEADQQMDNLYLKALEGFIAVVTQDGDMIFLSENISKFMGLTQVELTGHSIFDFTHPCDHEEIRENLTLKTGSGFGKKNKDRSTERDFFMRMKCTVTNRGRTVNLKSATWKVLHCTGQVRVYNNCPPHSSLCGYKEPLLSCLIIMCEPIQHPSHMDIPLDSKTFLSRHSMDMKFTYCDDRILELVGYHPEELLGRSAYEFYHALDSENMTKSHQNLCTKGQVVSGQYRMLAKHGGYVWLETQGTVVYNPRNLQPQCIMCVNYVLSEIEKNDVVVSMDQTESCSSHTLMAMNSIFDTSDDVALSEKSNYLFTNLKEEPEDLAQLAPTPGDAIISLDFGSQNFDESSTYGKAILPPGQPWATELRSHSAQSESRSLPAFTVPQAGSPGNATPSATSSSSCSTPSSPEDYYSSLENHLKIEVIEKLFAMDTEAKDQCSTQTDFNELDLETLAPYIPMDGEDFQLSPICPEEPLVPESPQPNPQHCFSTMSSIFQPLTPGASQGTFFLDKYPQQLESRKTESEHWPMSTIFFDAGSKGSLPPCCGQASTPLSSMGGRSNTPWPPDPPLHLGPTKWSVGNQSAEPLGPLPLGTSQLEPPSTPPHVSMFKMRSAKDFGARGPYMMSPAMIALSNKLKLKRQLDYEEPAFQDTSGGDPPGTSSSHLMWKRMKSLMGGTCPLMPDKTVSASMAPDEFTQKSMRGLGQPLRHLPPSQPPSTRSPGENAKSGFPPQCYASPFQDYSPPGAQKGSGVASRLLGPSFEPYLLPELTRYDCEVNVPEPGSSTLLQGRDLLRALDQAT

The target of experiment [4] is hypoxia-inducible factor-1α (rat (endogenous in ventrolateral medulla)) (UniProt O35800). The experiment is described as above.

Results are given in words; binding and its absence hold for the method and conditions named. In cells and extracts the contact can be indirect. Some results given as binding are weak or reduced against the parent protein; the word gives no strength.

Experimental findings from paper PMC3048406 are described below.

For HIF-2α (from UniProt Q9JHS1 1-874), the binding entry is “binds weakly” in experiment [1] and “binds” in experiment [2].
Consider “hypoxia-inducible factor-1α (from UniProt O35800 1-825)”, for which the binding result in experiment [1] is given as “binds weakly”; in experiment [2], “binds”; in experiment [3], “binds”.
Regarding “small ubiquitin-related modifier-1 (from UniProt Q5I0H3 1-97)”, in experiment [4], the binding entry is given as “binds”.
